In test [1] the target is T1, Ctf4 461–927 (budding yeast) (UniProt Q01454).
T1 sequence: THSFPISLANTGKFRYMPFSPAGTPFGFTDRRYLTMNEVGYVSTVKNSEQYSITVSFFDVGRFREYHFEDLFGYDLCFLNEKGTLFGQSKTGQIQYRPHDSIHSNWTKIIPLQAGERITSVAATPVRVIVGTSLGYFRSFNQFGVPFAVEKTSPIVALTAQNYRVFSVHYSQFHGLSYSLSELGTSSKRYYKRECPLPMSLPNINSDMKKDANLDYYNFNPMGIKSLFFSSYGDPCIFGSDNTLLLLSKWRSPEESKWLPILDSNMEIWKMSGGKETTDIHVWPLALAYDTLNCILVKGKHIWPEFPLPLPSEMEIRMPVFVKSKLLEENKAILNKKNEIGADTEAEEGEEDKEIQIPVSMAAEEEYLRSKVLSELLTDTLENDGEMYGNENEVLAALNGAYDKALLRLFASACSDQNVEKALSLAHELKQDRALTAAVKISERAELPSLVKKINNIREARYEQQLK
The experiment in a line: two-hybrid; yeast two-hybrid screen against amino acids 461–927 of Ctf4, performed by Hybrigenics.

The chains behind the UniProt entries cited, without tags or fusion partners. Where a name states a change or a piece, a line headed by the entry shows the natural chain unless it says otherwise.
UniProt P21951: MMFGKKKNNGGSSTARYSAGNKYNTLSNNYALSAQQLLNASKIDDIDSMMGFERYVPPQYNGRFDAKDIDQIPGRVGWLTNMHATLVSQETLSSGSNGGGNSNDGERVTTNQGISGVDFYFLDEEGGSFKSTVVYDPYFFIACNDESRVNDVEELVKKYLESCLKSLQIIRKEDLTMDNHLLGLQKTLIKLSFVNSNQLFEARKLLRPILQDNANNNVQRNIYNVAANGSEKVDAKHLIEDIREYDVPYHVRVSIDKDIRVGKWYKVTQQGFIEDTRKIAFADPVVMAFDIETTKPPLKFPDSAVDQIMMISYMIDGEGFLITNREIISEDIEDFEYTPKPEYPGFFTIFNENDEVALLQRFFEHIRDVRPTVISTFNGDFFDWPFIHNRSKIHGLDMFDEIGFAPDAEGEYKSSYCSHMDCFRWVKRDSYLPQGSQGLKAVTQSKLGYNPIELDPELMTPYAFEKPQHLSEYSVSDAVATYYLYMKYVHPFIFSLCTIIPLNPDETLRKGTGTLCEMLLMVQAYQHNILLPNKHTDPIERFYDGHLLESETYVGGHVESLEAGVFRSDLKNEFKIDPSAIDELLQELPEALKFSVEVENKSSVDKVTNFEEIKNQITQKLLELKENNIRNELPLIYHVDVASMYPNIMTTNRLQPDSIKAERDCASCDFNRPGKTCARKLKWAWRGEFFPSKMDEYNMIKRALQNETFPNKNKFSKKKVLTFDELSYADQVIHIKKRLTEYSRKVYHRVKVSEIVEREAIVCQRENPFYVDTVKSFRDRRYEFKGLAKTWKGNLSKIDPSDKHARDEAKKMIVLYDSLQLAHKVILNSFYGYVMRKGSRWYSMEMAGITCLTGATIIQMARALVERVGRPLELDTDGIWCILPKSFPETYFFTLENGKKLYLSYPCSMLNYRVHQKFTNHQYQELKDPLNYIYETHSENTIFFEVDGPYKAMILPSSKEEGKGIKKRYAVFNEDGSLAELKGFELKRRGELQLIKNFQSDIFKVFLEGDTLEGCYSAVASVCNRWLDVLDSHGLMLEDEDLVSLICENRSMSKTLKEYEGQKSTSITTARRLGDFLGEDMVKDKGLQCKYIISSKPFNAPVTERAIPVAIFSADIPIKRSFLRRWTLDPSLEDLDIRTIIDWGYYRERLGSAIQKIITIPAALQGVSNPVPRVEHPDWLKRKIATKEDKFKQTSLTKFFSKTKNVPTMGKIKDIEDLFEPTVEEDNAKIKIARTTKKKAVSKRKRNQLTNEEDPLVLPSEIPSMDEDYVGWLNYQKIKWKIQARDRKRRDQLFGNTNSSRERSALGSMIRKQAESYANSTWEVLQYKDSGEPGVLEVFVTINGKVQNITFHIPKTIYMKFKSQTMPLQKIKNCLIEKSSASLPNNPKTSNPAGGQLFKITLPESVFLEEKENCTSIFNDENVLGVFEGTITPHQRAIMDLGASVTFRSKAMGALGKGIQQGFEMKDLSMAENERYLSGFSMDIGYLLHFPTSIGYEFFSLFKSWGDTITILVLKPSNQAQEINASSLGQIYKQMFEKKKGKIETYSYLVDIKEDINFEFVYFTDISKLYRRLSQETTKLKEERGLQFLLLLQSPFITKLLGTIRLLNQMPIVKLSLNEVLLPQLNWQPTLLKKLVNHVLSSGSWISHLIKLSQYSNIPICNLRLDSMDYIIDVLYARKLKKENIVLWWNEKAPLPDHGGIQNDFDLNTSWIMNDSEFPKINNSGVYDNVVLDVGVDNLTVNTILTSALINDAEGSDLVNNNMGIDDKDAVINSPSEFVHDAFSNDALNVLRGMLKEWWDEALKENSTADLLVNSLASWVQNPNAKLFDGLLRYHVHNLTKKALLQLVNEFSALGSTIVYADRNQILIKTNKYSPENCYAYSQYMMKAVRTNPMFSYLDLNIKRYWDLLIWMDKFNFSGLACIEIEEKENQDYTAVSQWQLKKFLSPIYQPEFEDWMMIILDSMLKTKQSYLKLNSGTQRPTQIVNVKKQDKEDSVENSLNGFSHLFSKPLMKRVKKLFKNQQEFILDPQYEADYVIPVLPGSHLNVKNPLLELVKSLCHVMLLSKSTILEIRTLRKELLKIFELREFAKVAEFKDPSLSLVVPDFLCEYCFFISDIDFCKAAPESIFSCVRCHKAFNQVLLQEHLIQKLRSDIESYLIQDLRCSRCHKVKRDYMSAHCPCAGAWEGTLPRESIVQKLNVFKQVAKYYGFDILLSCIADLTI
UniProt P24482: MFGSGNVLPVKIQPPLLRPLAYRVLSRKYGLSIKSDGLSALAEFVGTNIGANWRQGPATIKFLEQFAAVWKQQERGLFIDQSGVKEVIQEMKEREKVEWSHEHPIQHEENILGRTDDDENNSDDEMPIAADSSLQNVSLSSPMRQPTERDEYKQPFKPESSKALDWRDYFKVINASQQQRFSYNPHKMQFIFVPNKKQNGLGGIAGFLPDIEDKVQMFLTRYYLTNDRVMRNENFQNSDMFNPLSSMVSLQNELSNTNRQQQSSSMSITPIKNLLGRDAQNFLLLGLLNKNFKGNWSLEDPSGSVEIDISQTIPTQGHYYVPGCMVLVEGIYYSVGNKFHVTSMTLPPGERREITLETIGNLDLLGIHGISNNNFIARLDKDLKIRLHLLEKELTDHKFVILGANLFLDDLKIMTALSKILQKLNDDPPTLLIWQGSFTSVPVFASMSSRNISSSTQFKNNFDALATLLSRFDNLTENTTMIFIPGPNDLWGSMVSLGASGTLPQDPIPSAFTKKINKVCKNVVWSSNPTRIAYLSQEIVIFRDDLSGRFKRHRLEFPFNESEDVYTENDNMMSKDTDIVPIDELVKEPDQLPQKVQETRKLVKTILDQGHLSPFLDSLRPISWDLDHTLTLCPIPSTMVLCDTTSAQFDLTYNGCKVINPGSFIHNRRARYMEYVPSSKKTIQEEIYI
UniProt Q02208: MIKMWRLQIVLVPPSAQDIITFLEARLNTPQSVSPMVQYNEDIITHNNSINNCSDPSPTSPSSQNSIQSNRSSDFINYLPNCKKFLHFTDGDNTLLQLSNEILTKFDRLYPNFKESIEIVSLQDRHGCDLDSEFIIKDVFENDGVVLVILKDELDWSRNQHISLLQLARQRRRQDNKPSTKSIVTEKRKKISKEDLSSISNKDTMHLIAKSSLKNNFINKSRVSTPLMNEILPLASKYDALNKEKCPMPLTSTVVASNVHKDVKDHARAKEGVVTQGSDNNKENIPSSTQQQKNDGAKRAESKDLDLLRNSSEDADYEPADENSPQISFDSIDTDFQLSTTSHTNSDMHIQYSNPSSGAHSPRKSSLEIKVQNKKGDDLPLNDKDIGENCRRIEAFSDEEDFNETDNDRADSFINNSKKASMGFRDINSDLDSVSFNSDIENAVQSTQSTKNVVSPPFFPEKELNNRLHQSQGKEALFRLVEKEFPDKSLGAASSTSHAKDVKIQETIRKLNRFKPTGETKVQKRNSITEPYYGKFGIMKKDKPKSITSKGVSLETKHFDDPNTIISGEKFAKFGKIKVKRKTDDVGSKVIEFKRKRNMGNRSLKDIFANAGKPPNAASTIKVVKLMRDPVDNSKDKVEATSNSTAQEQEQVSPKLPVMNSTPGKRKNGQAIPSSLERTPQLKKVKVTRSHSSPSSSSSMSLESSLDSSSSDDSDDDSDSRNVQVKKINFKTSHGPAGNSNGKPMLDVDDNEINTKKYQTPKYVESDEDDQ

Test [2] addresses Pol2 catalytic subunit of Pol ε (two-hybrid) (budding yeast) (UniProt P21951). In words: two-hybrid; directed yeast two-hybrid assay, fusions to the activation and DNA-binding domains of Gal4.
Test [3] addresses T1, Ctf4 461–927 (budding yeast). Described as above.

These are yes or no findings as the source states them, for the method shown. For some of these results: A result given as binding can be weak or reduced; the word gives no strength.

With “central β-propeller domain of Ctf4 (two-hybrid screen) (from UniProt Q01454) (domain or fragment)”, in test [1], the binding result is “binds”.

Take “Dpb2 with mutations in the type II CIP-box (two-hybrid) (from UniProt P24482)”: the binding result in test [2] is “binds”; in test [3], “no binding”.

“Tof2 with mutations in the predicted CIP-box (two-hybrid) (from UniProt Q02208)”: the binding result in test [3] is “no binding”.

The values above are taken from article PMC4980431, “Ctf4 Is a Hub in the Eukaryotic Replisome that Links Multiple CIP-Box Proteins to the CMG Helicase” (Molecular Cell, 2016).
